Source: PubChem BioAssay AID504749 (NCATS, 2011).

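Malaria parasite (P. falciparum) lines kept in red blood cells; parasite DNA is measured by SYBR Green fluorescence after lysis, 72 h after compound addition. Each compound was titrated across a series from about 0.000037 to 29 µM. The number is the fitted AC50, the concentration giving a half-maximal change in signal; a lower value means higher potency, whether the curve shows a decrease or an increase. Calls follow the curve class and fit quality: every row here is inconclusive, covering signal-raising curves and weak, poorly fitted, partial or highest-dose-only inhibition curves.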

Values are in µM. All entries here are filed as inconclusive. These entries are mostly ones the record files as inconclusive; other results of the assay are not listed here. Potencies fitted to partial, single-point or poorly fitting curves are rough. The first word of each remark tells which way the curve ran; it can be opposite to the aim of the assay.

Result for NC(=O)OCC(COC(N)=O)c1ccccc1 [W2] was potency 1.51 µM (inhibitor, single point). For NC(=O)OCC(COC(N)=O)c1ccccc1 [CP335] the result was potency 3.381 µM (inhibitor, single point). With CCN(CC)CCOc1ccc(Cc2ccccc2)cc1 [CP247] the assay gave potency 0.8913 µM (inhibitor, single point). Result for CCN(CC)CCOc1ccc(Cc2ccccc2)cc1 [CP260] was potency 17.78 µM (inhibitor, single point). With CCN(CC)CCOc1ccc(Cc2ccccc2)cc1 [DIV14] the assay gave potency 0.9528 µM (inhibitor, partial curve, poor fit). CCN(CC)CCOc1ccc(Cc2ccccc2)cc1 [W2] read potency 4.256 µM (inhibitor, single point). CC1=C(/C=C/C(C)=C\C=C\C(C)=C\C=C\C=C(C)\C=C\C=C(C)\C=C\C2=C(C)C[C@@H](O)CC2(C)C)C(C)(C)C[C@H](O)C1 [ATS95] read potency 14.13 µM (inhibitor, single point). CC1=C(/C=C/C(C)=C\C=C\C(C)=C\C=C\C=C(C)\C=C\C=C(C)\C=C\C2=C(C)C[C@@H](O)CC2(C)C)C(C)(C)C[C@H](O)C1 [DIV30] gave potency 19.01 µM (inhibitor, single point).

For CC1=C(/C=C/C(C)=C\C=C\C(C)=C\C=C\C=C(C)\C=C\C=C(C)\C=C\C2=C(C)C[C@@H](O)CC2(C)C)C(C)(C)C[C@H](O)C1 [JCK] the result was potency 17.78 µM (inhibitor, single point). With CC1=C(/C=C/C(C)=C\C=C\C(C)=C\C=C\C=C(C)\C=C\C=C(C)\C=C\C2=C(C)C[C@@H](O)CC2(C)C)C(C)(C)C[C@H](O)C1 [3D7] the assay gave potency 14.13 µM (inhibitor, single point). CC1=C(/C=C/C(C)=C\C=C\C(C)=C\C=C\C=C(C)\C=C\C=C(C)\C=C\C2=C(C)C[C@@H](O)CC2(C)C)C(C)(C)C[C@H](O)C1 [ATS189] read potency 15.85 µM (inhibitor, single point). CC1=C(/C=C/C(C)=C\C=C\C(C)=C\C=C\C=C(C)\C=C\C=C(C)\C=C\C2=C(C)C[C@@H](O)CC2(C)C)C(C)(C)C[C@H](O)C1 [PC15] read potency 11.22 µM (inhibitor, single point). For CC1=C(/C=C/C(C)=C\C=C\C(C)=C\C=C\C=C(C)\C=C\C=C(C)\C=C\C2=C(C)C[C@@H](O)CC2(C)C)C(C)(C)C[C@H](O)C1 [SC27B] the result was potency 11.22 µM (inhibitor, single point). Result for CC1=C(/C=C/C(C)=C\C=C\C(C)=C\C=C\C=C(C)\C=C\C=C(C)\C=C\C2=C(C)C[C@@H](O)CC2(C)C)C(C)(C)C[C@H](O)C1 [CP217] was potency 10 µM (inhibitor, single point). CC1=C(/C=C/C(C)=C\C=C\C(C)=C\C=C\C=C(C)\C=C\C=C(C)\C=C\C2=C(C)C[C@@H](O)CC2(C)C)C(C)(C)C[C@H](O)C1 [CP252] gave potency 11.22 µM (inhibitor, single point). With NCCc1cnc[nH]1 [3D7] the assay gave potency 3.162 µM (inhibitor, single point).

With NCCc1cnc[nH]1 [PAD] the assay gave potency 12.59 µM (activator, partial curve, poor fit). NCCc1cnc[nH]1 [PC49] read potency 14.13 µM (activator, partial curve, poor fit). With NCCc1cnc[nH]1 [ATS95] the assay gave potency 17.78 µM (activator, single point). NC(=O)OC[C@@H]1[C@H](NC(=O)/C(=N/OCC(=O)O)c2csc(N)n2)C(=O)N1S(=O)(=O)O [CP268] read potency 0.0004 µM (activator). For NC(=O)OC[C@@H]1[C@H](NC(=O)/C(=N/OCC(=O)O)c2csc(N)n2)C(=O)N1S(=O)(=O)O [DIV17] the result was potency 0.0021 µM (activator, full curve, poor fit). With NC(=O)OC[C@@H]1[C@H](NC(=O)/C(=N/OCC(=O)O)c2csc(N)n2)C(=O)N1S(=O)(=O)O [W2] the assay gave potency 0.0379 µM (activator). NC(=O)OC[C@@H]1[C@H](NC(=O)/C(=N/OCC(=O)O)c2csc(N)n2)C(=O)N1S(=O)(=O)O [JCK] read potency 0.0158 µM (inhibitor, full curve, poor fit). For CN1CCC(=C2c3ccccc3CCc3sccc32)CC1 [CP325] the result was potency 10.69 µM (inhibitor, partial curve).

CN1CCC(=C2c3ccccc3CCc3sccc32)CC1 [CP269] gave potency 13.46 µM (inhibitor, partial curve). CN1CCC(=C2c3ccccc3CCc3sccc32)CC1 [P93_24] read potency 7.08 µM (inhibitor, partial curve). CN1CCC(=C2c3ccccc3CCc3sccc32)CC1 [CP201] read potency 4.776 µM (inhibitor, partial curve, poor fit). For CN1CCC(=C2c3ccccc3CCc3sccc32)CC1 [CP247] the result was potency 8.912 µM (inhibitor, partial curve). For CN1CCC(=C2c3ccccc3CCc3sccc32)CC1 [CP237] the result was potency 11.22 µM (inhibitor, partial curve). CN1CCC(=C2c3ccccc3CCc3sccc32)CC1 [CP203] read potency 13.46 µM (inhibitor, partial curve). For CN1CCC(=C2c3ccccc3CCc3sccc32)CC1 [SC27B] the result was potency 7.08 µM (inhibitor, partial curve). CN1CCC(=C2c3ccccc3CCc3sccc32)CC1 [CP215] read potency 15.1 µM (inhibitor, single point).

CN1CCC(=C2c3ccccc3CCc3sccc32)CC1 [CP194] read potency 13.46 µM (inhibitor, partial curve). CN1CCC(=C2c3ccccc3CCc3sccc32)CC1 [AS120] read potency 10 µM (inhibitor, partial curve).

4 of the entries, repeated:

{"structure": "CC1=C(/C=C/C(C)=C\\C=C\\C(C)=C\\C=C\\C=C(C)\\C=C\\C=C(C)\\C=C\\C2=C(C)C[C@@H](O)CC2(C)C)C(C)(C)C[C@H](O)C1", "setting": "CP252", "potency (µM)": "11.22", "curve as filed": "inhibitor, single point"}
{"structure": "CN1CCC(=C2c3ccccc3CCc3sccc32)CC1", "setting": "CP237", "potency (µM)": "11.22", "curve as filed": "inhibitor, partial curve"}
{"structure": "CC1=C(/C=C/C(C)=C\\C=C\\C(C)=C\\C=C\\C=C(C)\\C=C\\C=C(C)\\C=C\\C2=C(C)C[C@@H](O)CC2(C)C)C(C)(C)C[C@H](O)C1", "setting": "ATS95", "potency (µM)": "14.13", "curve as filed": "inhibitor, single point"}
{"structure": "CN1CCC(=C2c3ccccc3CCc3sccc32)CC1", "setting": "CP215", "potency (µM)": "15.1", "curve as filed": "inhibitor, single point"}